Measurements as given in US20220323445A1, “REDUCING IMMUNOGENICITY TO PEGLOTICASE” (Horizon Therapeutics Ireland DAC, priority 2020, published 2022).
The source gives many values for each of these; only a part stands here.

Test system: serum uric acid (sUA)
Assay: Serum uric acid (sUA) levels and sUA responders, open-label study of pegloticase with MTX (NCT03635957)
Format: in vivo, human
Protocol: The primary objective is to estimate the response rate during Month 6 (Weeks 20, 22, and 24), as measured by the sustained normalization of serum uric acid (SUA) to <6 mg/dL for at least 80% of the time during Month 6 in subjects receiving KXX with MTX.
The primary efficacy outcome endpoint is the sustained normalization of SUA to <6 mg/dL for at least 80% of the time during month 6 (weeks 20, 22, and 24) in subjects receiving KXX with MTX. This is slightly below the urate solubility threshold and this threshold has been the accepted standard for nearly all modern gout trials. Participants who achieve this endpoint were classified as “responders.” Serum uric acid (SUA) responders may also be defined as participants achieving and maintaining SUA <6 mg/dL for at least 80% of the time during Month 6 (Weeks 20, 22, and 24).
Blood samples may be collected prior to each pegloticase infusion for measurement of SUA levels using the Beckman Coulter AU System Uric Acid procedure. Participants were declared “non-responders” if there were SUA measures >6 mg/dL at 2 consecutive study visits beginning with the week 2 visit. […] If the SUA goal is not maintained before or at the 12-week mark, it was assumed that the participant had developed clinically relevant anti-pegloticase antibody and they received no further infusions. This assumption and subsequent discontinuation of pegloticase was consistent with the protocol of large phase III randomized controlled trials and the product label. A formal stopping rule was 2 occasions of SUA levels of greater than 6 mg/dL.
Clinical Chemistry—Blood samples were collected prior to each pegloticase infusion for measurement of SUA levels (primary efficacy parameter) using the Beckman Coulter AU System Uric Acid procedure. In this procedure uric acid is converted to hydrogen peroxide. Hydrogen peroxide reacts with reagent to produce a chromophore which is read bichromatically at 660/800 nm. The amount of dye formed is proportional to the uric acid concentration in the sample.
Serum samples for measurement of SUA levels were collected at the Screening Visit, the Week −4 Visit (prior to the first dose of MTX), and the Week −2 Visit during the MTX Run-in Period; within 48 hours prior to each pegloticase infusion and after the end of each pegloticase infusion prior to discharge from the site during the Pegloticase+IMM Period; at the non-infusion Week 52/End of Study/Early Termination Visits and at the Post Treatment 3 and 6 Month Follow-up Visits. Additional serum samples for SUA levels were collected at optional non-infusion (Frequent Sampling) Visits at Weeks 1 and 7. […] Subjects with SUA level >6 mg/dL at 2 consecutive visits beginning at Week 2 visit discontinued treatment, completed the End of Pegloticase Infusion Visit procedures within 2 weeks and continued the subject visits according to the protocol (without treatment).
Efficacy analyses were performed using the modified intention-to-treat (mITT) population, defined as all enrolled subjects who received ≥1 dose of pegloticase. The proportion of Month 6 responders was summarized, along with a 95% confidence interval for the proportion. The proportion of Month 3 and overall (Months 3 and 6 combined) responders was analyzed similarly.
A subject was declared a non-responder if the subject had SUA level >6 mg/dL at 2 consecutive study visits beginning with the Week 2 Visit. In addition, a subject who withdraws from study treatment for any reason after the first dose of pegloticase in the KXX+MTX Period and prior to Month 6 (for the primary endpoint) or Month 3 (for the secondary endpoint) was considered a non-responder if SUA values were not collected at the planned time points.
Patients were administered oral MTX (15 mg/week) and folate (1 mg/day) 4 weeks prior to the first pegloticase infusion (Day 1) and throughout the pegloticase treatment period. […]

[1] = Week 8 - Post-Infusion, Month 6 sUA Non-Responders
[2] = Week 8 - Post-Infusion, Month 6 sUA Responders
[3] = Week 8 - Pre-Infusion, Month 6 sUA Non-Responders
[4] = Week 8 - Pre-Infusion, Month 6 sUA Responders
[5] = Week 10 - Pre-Infusion, Month 6 sUA Non-Responders
[6] = Week 10 - Pre-Infusion, Month 6 sUA Responders

B1: pegloticase (protein)
chain: TYKKNDEVEFVRTGYGKDMIKVLHIQRDGKYHSIKEVATTVQLTLSSKKDYLHGDNSDVIPTDTIKNTVNVLAKFKGIKSIETFAVTICEHFLSSFKHVIRAQVYVEEVPWKRFEKNGVKHVHAFIYTPTGTHFCEVEQIRNGPPVIHSGIKDLKVLKTTQSGFEGFIKDQFTTLPEVKDRCFATQVYCKWRYHQGRDVDFEATWDTVRSIVLQKFAGPYDKGEYSPSVQKTLYDIQVLTLGQVPEIEDMEISLPNIHYLNIDMSKMGLINKEEVLLPLDNPYGKITGTVKRKLSSRL
modifications: monomethoxy PEG conjugated; Krystexxa Sequence
notes: covalent conjugate of uricase produced by a genetically modified strain of Escherichia coli and monomethoxypoly (ethylene glycol)
Question: With B1 as the molecule, how does the “sUA Change from Baseline, Median” value (Week 7, Month 6 sUA Responders) read?
Answer: -7.85 mg/dL

Question: And the “sUA Observed, Median” value (Week 7, Month 6 sUA Responders)?
Answer: 0.30 mg/dL

Question: And the “sUA Change from Baseline, Median” value [1]?
Answer: -9.10 mg/dL

Question: What about the “sUA Observed, Median” value [1] of the same molecule?
Answer: 0.30 mg/dL

Question: What about the “sUA Change from Baseline, Median” value [2] of the same molecule?
Answer: -8.80 mg/dL

Question: And the “sUA Observed, Median” value [2]?
Answer: 0.30 mg/dL

Question: What about the “sUA Change from Baseline, Median” value [3] of the same molecule?
Answer: -0.50 mg/dL

Question: What about the “sUA Observed, Median” value [3] of the same molecule?
Answer: 8.90 mg/dL

Question: And the “sUA Change from Baseline, Median” value [4]?
Answer: -8.60 mg/dL

Question: And the “sUA Observed, Median” value [4]?
Answer: 0.30 mg/dL

Question: What about the “sUA Change from Baseline, Median” value [5] of the same molecule?
Answer: -1.30 mg/dL

Question: What about the “sUA Observed, Median” value [5] of the same molecule?
Answer: 8.10 mg/dL

Question: And the “sUA Change from Baseline, Median” value [6]?
Answer: -8.80 mg/dL

Question: And the “sUA Observed, Median” value [6]?
Answer: 0.30 mg/dL
